Laboratory results as given in article PMC3899338.
No constants are given. Whether binding was seen depends on the method and setting. In cells and extracts the contact can be indirect.

Sequences of proteins named here, by UniProt entry; tags and fusion partners are left off.
UniProt P08238: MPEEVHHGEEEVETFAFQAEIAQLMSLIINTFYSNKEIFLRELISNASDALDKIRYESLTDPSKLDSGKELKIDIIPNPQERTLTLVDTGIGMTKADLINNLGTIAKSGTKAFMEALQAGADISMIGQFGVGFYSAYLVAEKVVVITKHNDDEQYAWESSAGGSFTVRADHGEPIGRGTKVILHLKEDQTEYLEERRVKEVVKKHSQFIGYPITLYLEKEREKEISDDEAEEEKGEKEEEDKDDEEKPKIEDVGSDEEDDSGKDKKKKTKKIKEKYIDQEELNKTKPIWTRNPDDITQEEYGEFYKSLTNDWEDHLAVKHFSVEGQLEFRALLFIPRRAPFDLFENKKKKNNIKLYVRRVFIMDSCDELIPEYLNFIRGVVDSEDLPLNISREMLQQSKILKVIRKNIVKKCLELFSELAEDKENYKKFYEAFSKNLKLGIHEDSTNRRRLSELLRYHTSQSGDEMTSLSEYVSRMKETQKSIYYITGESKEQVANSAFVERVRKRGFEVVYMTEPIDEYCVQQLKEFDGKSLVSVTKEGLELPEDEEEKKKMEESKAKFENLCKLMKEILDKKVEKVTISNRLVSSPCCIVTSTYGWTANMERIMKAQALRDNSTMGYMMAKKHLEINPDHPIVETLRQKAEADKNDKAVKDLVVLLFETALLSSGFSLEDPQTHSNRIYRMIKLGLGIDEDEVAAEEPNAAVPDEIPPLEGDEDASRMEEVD

Target: BSA (UniProt P02769)
Assay: pull-down; control immunoprecipitation: BSA covalently coupled to Dynabeads, incubated with DTSSP cross-linked MDA-MB-231 lysate; immunoblot for Hsp90α/β; only the target purified

binding	Substance
no binding	Hsp90α, endogenous in MDA-MB-231 cells (from UniProt P07900 1-732)
no binding	Hsp90β, endogenous in MDA-MB-231 cells (from UniProt P08238 1-724)
